Experimental data: article PMC10656229
Results are given in words; binding and its absence hold for the method and conditions named. In cells and extracts the contact can be indirect. Some results given as binding are weak or reduced against the parent protein; the word gives no strength. Where a sequence is shown, tags or fusion partners need not be part of it.

Chains of the proteins cited; added tags and fusions are not shown.
UniProt Q6SEG5: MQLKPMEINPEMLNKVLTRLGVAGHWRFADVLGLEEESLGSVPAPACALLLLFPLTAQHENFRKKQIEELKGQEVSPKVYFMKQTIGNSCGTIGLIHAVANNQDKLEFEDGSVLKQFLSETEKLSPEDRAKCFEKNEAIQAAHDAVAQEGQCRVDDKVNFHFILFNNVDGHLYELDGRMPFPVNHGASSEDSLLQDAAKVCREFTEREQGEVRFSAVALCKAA

T1: voltage-dependent anion channel 2 (VDAC2) (pig (endogenous in porcine granulosa cells)) (UniProt Q9MZ15)
T1 sequence: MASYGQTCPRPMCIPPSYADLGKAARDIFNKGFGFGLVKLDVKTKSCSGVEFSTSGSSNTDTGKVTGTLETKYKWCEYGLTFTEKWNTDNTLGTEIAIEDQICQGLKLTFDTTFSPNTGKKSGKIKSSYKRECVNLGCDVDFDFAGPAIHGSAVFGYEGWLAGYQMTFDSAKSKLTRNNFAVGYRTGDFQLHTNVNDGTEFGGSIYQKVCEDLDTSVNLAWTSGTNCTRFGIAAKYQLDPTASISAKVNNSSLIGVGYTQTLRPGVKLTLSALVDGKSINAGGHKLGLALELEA

B1: voltage-dependent anion channel 2 (VDAC2) (protein, UniProt Q9MZ15 1-294)
chain: T1 sequence

Legend:
[1] = target: T1, voltage-dependent anion channel 2 (VDAC2) (pig (endogenous in porcine granulosa cells)); experiment: co-IP; lysate of porcine granulosa cells; endogenous proteins precipitated with anti-UCHL1 or anti-VDAC2 antibody and magnetic beads, IgG as negative control; Western blot with UCHL1 and VDAC2 antibodies
[2] = target: ubiquitin C-terminal hydrolase 1 (UCHL1) (pig (endogenous in porcine granulosa cells)) (UniProt Q6SEG5); experiment: as above

Molecule	binding [1]	binding [2]
ubiquitin C-terminal hydrolase 1 (UCHL1) (from UniProt Q6SEG5 1-223) (enzyme)	binds	–
B1	–	binds
